Experimental data published in PubChem BioAssay AID1347426 (Functional Genomics Laboratory (NCATS/FGL), 2020).
Among all 31,000 sequences or so, about 1,400 (4.5%) were called active.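 How the source made its calls: active means median seed-adjusted z-score above 1 or below -1; inactive means the rest.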 Some of the results follow.

Assay: Novel Modifiers of Survival Motor Neuron (SMN) Protein: Gene Identification via Genome-wide siRNA Screen;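 further: luminescence tracks full-length SMN protein made from the SMN2 reporter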
Conditions: HEK293T SMN2-luciferase reporter, siRNA knockdown, 72 h; actives lie on both sides
Summary of the method: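 siRNA screen, 10418 genes ×3 siRNAs; 1 pmol/well, lipid reverse transfection into HEK293T SMN2-luc reporter line. 72 h, 37 °C, 5% CO2; ONE-Glo readout. Data: neg-ctrl normalized, log10, MAD; hit = MAD >1.0 or < -1.0.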
With GUGCAUCUCUUGACAAUUUTT against LIPI the median seed-adjusted z-score was inactive: 0.65. In the case of GACAAUGGGUUAUUCAGGATT against FNTA, the median seed-adjusted z-score is reported as active: 1.04. In the case of CCACGGUCUGGUUGAUUUATT against KDELR1, the median seed-adjusted z-score is reported as inactive: -0.0168. For GCCGUUGAAUUAGCGAAGATT against IPO8, the median seed-adjusted z-score was inactive: -0.349. For CACUUGCUAUUAUUAGCAUTT against NMBR, the median seed-adjusted z-score was inactive: 0.32. For GGUCGAAAAGCAAACUCAATT against PTPRN2, the median seed-adjusted z-score was inactive: -0.104. With CCCAGGCUAGUCACAGUUATT against SCO2 the median seed-adjusted z-score was inactive: 0.848. For GGACAGGGCUUAUUUAAUUTT against ORC6L, the median seed-adjusted z-score was inactive: 0. In the case of GCGAGAAGGUUGAUCCAAATT against RP2, the median seed-adjusted z-score is reported as inactive: -0.655. In the case of GGGUUUUAGUAACCUUAGATT against SUCNR1, the median seed-adjusted z-score is reported as inactive: 0. With GCUCAGGAGCUAUGCCUCATT against TH the median seed-adjusted z-score was inactive: -0.878. For GUGUAUCUCCUGCAAGAUATT against CD96, the median seed-adjusted z-score was inactive: 0.461. In the case of CCAGAAAGCUUCAUCCACATT against MC1R, the median seed-adjusted z-score is reported as inactive: -0.64. For CCUCCUGUAUAAAAAGGAATT against CLDN20, the median seed-adjusted z-score was inactive: -0.00173. With CGGAUACUGAGGUACAGAATT against TPMT the median seed-adjusted z-score was inactive: 0.19. In the case of GCACAUGACAUACAUACGATT against PTER, the median seed-adjusted z-score is reported as inactive: 0.75. For CGGAUAAGCUGAAAACACUTT against AHSA1, the median seed-adjusted z-score was inactive: 0.489. With GCACUUAAAAGGGCGAAGATT against ZFR the median seed-adjusted z-score was inactive: -0.048. For CAACUACGGUGGAGUGAUATT against PRIM1, the median seed-adjusted z-score was inactive: -0.23. For GGCUUUUAGGGUACGAGGATT against ZFP82, the median seed-adjusted z-score was inactive: 0.57. With CAACCUUUCACUGCAAUGATT against NAT8 the median seed-adjusted z-score was inactive: -0.228. In the case of ACGCUUCAGUGGUACCUCUTT against SIGLEC1, the median seed-adjusted z-score is reported as inactive: -0.153. With GGUUGACCAAGAUACAGCATT against LONRF1 the median seed-adjusted z-score was inactive: 0.743. With GCUGUUACCUCGACGAGUATT against TSC2 the median seed-adjusted z-score was active: 1.11. For GCUCCAGUCUCACUAAACATT against ZNF552, the median seed-adjusted z-score was inactive: 0.437. With GACCAGAUAUUUGCCUAUUTT against CYFIP1 the median seed-adjusted z-score was inactive: -0.377. For GAGAUUCUCUCAGCCUAAATT against ADAR, the median seed-adjusted z-score was inactive: 0.267. With GAAUUAGAGUUGAGGGUAATT against MYBPC1 the median seed-adjusted z-score was inactive: 0.295. In the case of GCUUAGCAAUGGAUAUGCATT against DERL1, the median seed-adjusted z-score is reported as inactive: 0.22. With GUCAGUUAGUGACAGCUAATT against ST8SIA1 the median seed-adjusted z-score was inactive: -0.25. For GGAGGACAUCGACCAGAUATT against APBA1, the median seed-adjusted z-score was inactive: 0.305. With CAUUAUUUCGCGAAUCCAATT against ADAM15 the median seed-adjusted z-score was inactive: -0.682. With GAGCGCCUCUAGAAUGUAATT against HMX1 the median seed-adjusted z-score was active: 1.3. In the case of CAUACACUUGUAUCGCAAATT against FSTL5, the median seed-adjusted z-score is reported as inactive: -0.881. For CCACGAAGAUCUCAUCAUATT against RNF12, the median seed-adjusted z-score was inactive: 0.29. In the case of GAAUUAGACCACAACAUCATT against SMC2, the median seed-adjusted z-score is reported as inactive: -0.052. For GGAGGAUCAUUGGAUCUCATT against CFD, the median seed-adjusted z-score was inactive: -0.0604. For CAAUGUUACCAAAACCGAATT against ACVR1C, the median seed-adjusted z-score was inactive: -0.0005. In the case of GGCAGGAUCCUGUUACAUATT against RFC1, the median seed-adjusted z-score is reported as inactive: 0. With GGCUCAUUCUACUCGAAGATT against ADAMTS12 the median seed-adjusted z-score was inactive: -0.0721. With GGAUAUCUGGUACUAAAAATT against S100A14 the median seed-adjusted z-score was inactive: 0.0172. For CCACCUUGUGAAAUCCUAUTT against ESD, the median seed-adjusted z-score was inactive: -0.196. In the case of CGGCUACAAUACUAAUCGATT against REST, the median seed-adjusted z-score is reported as inactive: 0.416. In the case of GGAUCAAGUGUGAUCAGUATT against PTPRS, the median seed-adjusted z-score is reported as inactive: -0.433. With ACCUGAUCGUGGAGAGUGATT against TMCO6 the median seed-adjusted z-score was inactive: -0.227. For GGCAAUUAAUGAAGUCUUUTT against SWAP70, the median seed-adjusted z-score was inactive: -0.704. For GGAGACUUCUUACCCACCATT against PSMD4, the median seed-adjusted z-score was active: 1.46. With GGAAGUAAUGAAAACUCAATT against PNLIPRP2 the median seed-adjusted z-score was inactive: -0.022. For GCAAAAUGGAACUCCCAUATT against BTNL8, the median seed-adjusted z-score was inactive: 0.0508. With CAAUCCAUACUGGUAUAAATT against ZNF540 the median seed-adjusted z-score was inactive: -0.439. With CAAAGUUGGUUUAUAGUAUTT against CDH8 the median seed-adjusted z-score was inactive: 0.169. In the case of CAUCGUGGAUCUGAUUAAATT against GSTT1, the median seed-adjusted z-score is reported as inactive: 0.0781. With GCAUCCUAGUGAGAAAGGATT against GZMH the median seed-adjusted z-score was inactive: 0.946. For GGCUUGCGGUGUGGACUAUTT against ARRB1, the median seed-adjusted z-score was inactive: -0.205. In the case of AGUGGAAACUGCUCACAGATT against SOX21, the median seed-adjusted z-score is reported as inactive: -0.412. In the case of GCUGCGAGAUGAGAACGGATT against NFE2L1, the median seed-adjusted z-score is reported as inactive: 0.689. In the case of CGACAGAAAUCCUGAAUGATT against PBX1, the median seed-adjusted z-score is reported as inactive: -0.199. For GAACGACAGAUUAGAAUAATT against GDAP2, the median seed-adjusted z-score was inactive: 0.199. In the case of GUGCUGCAAUUGAGGGCUATT against HSD11B2, the median seed-adjusted z-score is reported as inactive: 0.215. With GGAGAGUAGUCUAGACCAATT against KRT5 the median seed-adjusted z-score was inactive: -0.325. In the case of UCACCCAGAUAAUCAUUAATT against SFTPA2B, the median seed-adjusted z-score is reported as inactive: -0.016. In the case of GGUCGUGAGCGAUAAGACATT against ABCF2, the median seed-adjusted z-score is reported as inactive: 0.0696. With GGUUUAACAUCUUCACGCUTT against KIR2DL4 the median seed-adjusted z-score was inactive: -0.271. With GAAUGUUCUUCUCUGCUAATT against RGS1 the median seed-adjusted z-score was inactive: 0.329. In the case of GGCAUUAUCCUUUUCCUGUTT against SLC38A3, the median seed-adjusted z-score is reported as inactive: -0.177. With UCGAUAUUCUAAGAUCACATT against UBE2D3 the median seed-adjusted z-score was active: 1.62. For CGCUCGAACUUUCCACUAUTT against HCN1, the median seed-adjusted z-score was inactive: -0.107. In the case of AGAUUUUGAAGGCCGAGUATT against CAMK1, the median seed-adjusted z-score is reported as inactive: 0.325. With AGUCAACCGUGUUACCAUATT against PABPN1 the median seed-adjusted z-score was inactive: -0.757. In the case of ACUUCUUCUUAAUAGCUGUTT against PTGER3, the median seed-adjusted z-score is reported as inactive: -0.321. In the case of GCGCGCUACUUUGGGAUAATT against POLR2E, the median seed-adjusted z-score is reported as active: -1.25. For CAUUCGGACUCUACAUAUATT against TRMT11, the median seed-adjusted z-score was inactive: -0.707. With GUACCUGCGGGAUUACUCATT against CCT7 the median seed-adjusted z-score was inactive: -0.246. For GGGACUUAAUUUGAGCAUATT against SUPV3L1, the median seed-adjusted z-score was inactive: -0.169. For GUACCUCCAUAAUGAGUAATT against CCT8, the median seed-adjusted z-score was inactive: -0.161. In the case of GACCCACGCAAAGAACUUATT against ZNF346, the median seed-adjusted z-score is reported as inactive: 0.00564. For GUACUGAAAAUCGCUCUGATT against KCTD21, the median seed-adjusted z-score was inactive: 0.0236. For CUAGUGGUCAGAUAUCUUATT against ZNF620, the median seed-adjusted z-score was inactive: 0.172. In the case of CCAUAUUAAUGUCCAUGAUTT against PCDHB7, the median seed-adjusted z-score is reported as inactive: 0.365. In the case of AGAAUCCCACUGAUGCAUATT against MRLC2, the median seed-adjusted z-score is reported as inactive: -0.492. For GCCUUACAAUAGCAUGUAUTT against SLU7, the median seed-adjusted z-score was inactive: -0.97. With AGAUGUACAGGAAUCGCUATT against AKR7A3 the median seed-adjusted z-score was inactive: 0.455. With ACAUCUCCAUUGUCAAGCATT against GIT1 the median seed-adjusted z-score was inactive: -0.307. With GAUCUAGAGAAAUCGCUUUTT against CEP135 the median seed-adjusted z-score was inactive: -0.2. In the case of GAAUGGUCCUAAAACACCATT against NFE2L2, the median seed-adjusted z-score is reported as inactive: -0.596. For GGAACUUGCUCGACUGAGATT against ZRSR2, the median seed-adjusted z-score was inactive: 0.0222. In the case of CAGCCGUAGUGAUUAUUCUTT against HTR2A, the median seed-adjusted z-score is reported as inactive: 0.0665. For ACAAAGCGGUGGAUCCCAUTT against CNTNAP3, the median seed-adjusted z-score was inactive: 0.15. For GGAAUAGACUUCAAGAUCATT against RAB10, the median seed-adjusted z-score was inactive: -0.319. With GCUUUAGAAUACAUACCAATT against IFIT2 the median seed-adjusted z-score was inactive: -0.0205. With CCUCCUAUUUAAUUUCCUUTT against MAS1L the median seed-adjusted z-score was inactive: 0.0585. For GUAUCAAGGUUGGGCGAGATT against MYH11, the median seed-adjusted z-score was inactive: 0. In the case of GGUCAACGUGAUGUCCGAATT against ACOT7, the median seed-adjusted z-score is reported as inactive: 0.665. For CACCAGAUCUUCAAUCUAUTT against PPP1CC, the median seed-adjusted z-score was inactive: -0.344. With CCUUCUUCGACAACAGGAATT against TESC the median seed-adjusted z-score was inactive: -0.17. In the case of CGUCCACCAUCUGCAAGUATT against MKRN2, the median seed-adjusted z-score is reported as inactive: 0. For GCUGCGAAAGGAUCUCAAATT against UBE3B, the median seed-adjusted z-score was inactive: 0.0972. With UAACCCUCAUGGACGCAGATT against SOX15 the median seed-adjusted z-score was inactive: -0.376. In the case of CUACUUAUCAGGUCACGUATT against SLC35A3, the median seed-adjusted z-score is reported as inactive: 0.321. In the case of CAGUCUUCAUUGCUACUAATT against NFE2L2, the median seed-adjusted z-score is reported as inactive: -0.596. In the case of GCUUUAUGCUGCUAAGGCATT against PGD, the median seed-adjusted z-score is reported as active: -1.55. In the case of CACCCUUGUUUUGCCGAAATT against STAP1, the median seed-adjusted z-score is reported as inactive: 0. In the case of CCAAGAUGAUCUUCGAGUATT against MYO6, the median seed-adjusted z-score is reported as inactive: 0. In the case of CCACAGUUAUCGACAUGAATT against KCNJ15, the median seed-adjusted z-score is reported as inactive: 0.0332. For GGCUUCUCAUCGGAUCAGATT against TESC, the median seed-adjusted z-score was inactive: -0.17. With GGAUGAAAUACUAGAGAAATT against EIF2S2 the median seed-adjusted z-score was inactive: 0.576. In the case of CCAGCAUAUCAAAUCAAGATT against TSGA14, the median seed-adjusted z-score is reported as inactive: 0.433. With GCACUUAAAUAGUACUGAUTT against CLK4 the median seed-adjusted z-score was inactive: -0.201.
